Data source: PubChem BioAssay AID652272 (Drosophila RNAi Screening Center, 2013)

Test: 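Genes whose knock-down decreases or increases Hedgehog reporter output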 (primary screen)
Cell system: Drosophila clone 8 (Cl8) cells
Knock-down reagent: long dsRNA against Drosophila genes
Measurement: 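Firefly light from a Hedgehog-responsive ptc promoter reporter and Renilla reference light, both read on a plate reader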
Direction: firefly Hh reporter signal: higher = more ptc reporter light; Renilla reference signal: higher = more Renilla control light
Active means: 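Called a hit if the two-replicate mean z-score lies below -2 or above +3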
Meaning of the calls: active = hit: reporter lowered or raised; inactive = not a hit
In all, the deposit lists about 21,000 reagents; this is an unselected part of those with a known target gene and a result. Of all reagents, 503 (2.4%) got an active call. 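Raw plate light values, not normalised; calls rest on replicate z-scores that were not deposited; hits include reporter decreases as well as increases.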 A number with no mark means an inactive call. The record does not give: the amount of reagent, the time to read-out.

wun2 (wunen-2) [DRSC07566]
- firefly Hh reporter signal, replicate 1: 1.60e5
- firefly Hh reporter signal, replicate 2: 64822
- Renilla reference signal, replicate 1: 4256
- Renilla reference signal, replicate 2: 6217

CR15821 (pseudo) [DRSC08481]
- firefly Hh reporter signal, replicate 1: 96202
- firefly Hh reporter signal, replicate 2: 58216
- Renilla reference signal, replicate 1: 2529
- Renilla reference signal, replicate 2: 4757

Pex16 (Peroxin 16) [DRSC11750]
- firefly Hh reporter signal, replicate 1: 84320
- firefly Hh reporter signal, replicate 2: 35985
- Renilla reference signal, replicate 1: 3623
- Renilla reference signal, replicate 2: 1811

MFS9 (Major Facilitator Superfamily Transporter 9) [DRSC15560]
- firefly Hh reporter signal, replicate 1: 1.54e5
- firefly Hh reporter signal, replicate 2: 90080
- Renilla reference signal, replicate 1: 6005
- Renilla reference signal, replicate 2: 4220

CG34045 [DRSC05787]
- firefly Hh reporter signal, replicate 1: 1.72e5
- firefly Hh reporter signal, replicate 2: 3.61e5
- Renilla reference signal, replicate 1: 5212
- Renilla reference signal, replicate 2: 16386

CG8086 [DRSC03078]
- firefly Hh reporter signal, replicate 1: 79632
- firefly Hh reporter signal, replicate 2: 94221
- Renilla reference signal, replicate 1: 3017
- Renilla reference signal, replicate 2: 4349

CG8086 [DRSC03079]
- firefly Hh reporter signal, replicate 1: 1.04e5
- firefly Hh reporter signal, replicate 2: 42093
- Renilla reference signal, replicate 1: 2625
- Renilla reference signal, replicate 2: 4535

RpS23 (Ribosomal protein S23) [DRSC07169]
- firefly Hh reporter signal, replicate 1: 37177 (active)
- firefly Hh reporter signal, replicate 2: 18473
- Renilla reference signal, replicate 1: 3449
- Renilla reference signal, replicate 2: 1718

ste24a (prenyl protease type I) [DRSC07314]
- firefly Hh reporter signal, replicate 1: 1.71e5
- firefly Hh reporter signal, replicate 2: 55968
- Renilla reference signal, replicate 1: 5954
- Renilla reference signal, replicate 2: 2730

CG33111 [DRSC14208]
- firefly Hh reporter signal, replicate 1: 4.48e5
- firefly Hh reporter signal, replicate 2: 88906
- Renilla reference signal, replicate 1: 22333
- Renilla reference signal, replicate 2: 3048

CG33111 [DRSC14444]
- firefly Hh reporter signal, replicate 1: 6.41e5
- firefly Hh reporter signal, replicate 2: 1.11e5
- Renilla reference signal, replicate 1: 33498
- Renilla reference signal, replicate 2: 3972

tral (trailer hitch) [DRSC09779]
- firefly Hh reporter signal, replicate 1: 68663
- firefly Hh reporter signal, replicate 2: 29943
- Renilla reference signal, replicate 1: 3568
- Renilla reference signal, replicate 2: 1792

Records listed so far whose target name begins with C or c (6):
CR15821 (pseudo) [DRSC08481]
- firefly Hh reporter signal, replicate 1: 96202
- firefly Hh reporter signal, replicate 2: 58216
- Renilla reference signal, replicate 1: 2529
- Renilla reference signal, replicate 2: 4757

CG34045 [DRSC05787]
- firefly Hh reporter signal, replicate 1: 1.72e5
- firefly Hh reporter signal, replicate 2: 3.61e5
- Renilla reference signal, replicate 1: 5212
- Renilla reference signal, replicate 2: 16386

CG8086 [DRSC03078]
- firefly Hh reporter signal, replicate 1: 79632
- firefly Hh reporter signal, replicate 2: 94221
- Renilla reference signal, replicate 1: 3017
- Renilla reference signal, replicate 2: 4349

CG8086 [DRSC03079]
- firefly Hh reporter signal, replicate 1: 1.04e5
- firefly Hh reporter signal, replicate 2: 42093
- Renilla reference signal, replicate 1: 2625
- Renilla reference signal, replicate 2: 4535

CG33111 [DRSC14208]
- firefly Hh reporter signal, replicate 1: 4.48e5
- firefly Hh reporter signal, replicate 2: 88906
- Renilla reference signal, replicate 1: 22333
- Renilla reference signal, replicate 2: 3048

CG33111 [DRSC14444]
- firefly Hh reporter signal, replicate 1: 6.41e5
- firefly Hh reporter signal, replicate 2: 1.11e5
- Renilla reference signal, replicate 1: 33498
- Renilla reference signal, replicate 2: 3972
